# Results are given in words; binding and its absence hold for the method and conditions named. Binding can be weak; no strength is given. For some of these results: In cells and extracts the contact can be indirect. For some of these results: Where a sequence is shown, tags or fusion partners need not be part of it.
# T1: OsCIPK17 (BiFC fusion) (rice (Oryza sativa)) (UniProt Q75L42)
# T1 sequence: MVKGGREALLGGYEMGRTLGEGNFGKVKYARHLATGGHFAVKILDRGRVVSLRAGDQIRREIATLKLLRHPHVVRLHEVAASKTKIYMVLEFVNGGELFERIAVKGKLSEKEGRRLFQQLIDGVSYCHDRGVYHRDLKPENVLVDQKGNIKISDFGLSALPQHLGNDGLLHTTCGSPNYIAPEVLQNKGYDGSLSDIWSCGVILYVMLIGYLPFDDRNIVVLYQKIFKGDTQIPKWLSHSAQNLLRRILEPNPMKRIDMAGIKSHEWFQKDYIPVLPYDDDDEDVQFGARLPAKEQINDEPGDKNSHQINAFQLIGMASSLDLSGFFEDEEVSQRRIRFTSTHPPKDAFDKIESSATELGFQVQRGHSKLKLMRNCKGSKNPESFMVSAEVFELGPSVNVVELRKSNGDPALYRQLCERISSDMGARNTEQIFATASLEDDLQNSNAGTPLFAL
# T2: OsCIPK17 (rice (Oryza sativa)) (UniProt Q75L42)
# T2 sequence: T1 sequence
# B1: OsCBL8 (protein, UniProt Q3HRN9 1-213)
# chain: MGCVSSKQFKRAAQHEDPAILAKETTFSVSEVEALFELFKKISHSIFRDGLIHKEEFQLALFRNSNKKNLFANRIFDLFDLKRNGVIDFGEFVRSLSIFHPETPLGDKIAFAFRLYDLRGTGCIEREELHEMVLALLNESDLFLSEEAVEQIVDQTFKQADLNDDGKIDPDEWKTFASKNPALLKNMTLPYLKDITMVFPSFILNSEVCEEEL
# What was measured:
# [1] = target: T1, OsCIPK17 (BiFC fusion) (rice (Oryza sativa)); assay: split reporter; BiFC with pSPYCE/pSPYNE fusions expressed in Nicotiana benthamiana leaves for three days; YFP fluorescence by confocal microscopy
# [2] = target: T2, OsCIPK17 (rice (Oryza sativa)); assay: two-hybrid; Y2H of OsCIPK17 with predicted target proteins; for OsJAMYB AbA and 3-AT were added to QDO medium to inhibit self-activation; vectors of the partners not stated
# [3] = target: OsCIPK27 (rice (Oryza sativa)); assay: two-hybrid; Matchmaker Gold system, Y2HGold strain; OsCBL in pGADT7, OsCIPK in pGBKT7; growth on DDO, then TDO and QDO media
Molecule,binding [1],binding [2],other results
OsDREB1H (BiFC fusion) (rice (Oryza sativa)),binds,,
OsPP2C77 (BiFC fusion) (rice (Oryza sativa)),binds,,
OsPP2C77 (rice (Oryza sativa)),,binds,
OsDREB1H (rice (Oryza sativa)),,binds,
OsNAC77 (BiFC fusion) (rice (Oryza sativa)),binds,,
OsNAC77 (rice (Oryza sativa)),,binds,
B1,,,binding [3]: binds
